Reference: patent US20070253950A1
These are yes or no findings as the source states them, for the method shown. Some entries that bind do so weakly or less than the wild type.

The chains behind the UniProt entries cited, without tags or fusion partners. Where a name states a change or a piece, a line headed by the entry shows the natural chain unless it says otherwise.
UniProt Q62151: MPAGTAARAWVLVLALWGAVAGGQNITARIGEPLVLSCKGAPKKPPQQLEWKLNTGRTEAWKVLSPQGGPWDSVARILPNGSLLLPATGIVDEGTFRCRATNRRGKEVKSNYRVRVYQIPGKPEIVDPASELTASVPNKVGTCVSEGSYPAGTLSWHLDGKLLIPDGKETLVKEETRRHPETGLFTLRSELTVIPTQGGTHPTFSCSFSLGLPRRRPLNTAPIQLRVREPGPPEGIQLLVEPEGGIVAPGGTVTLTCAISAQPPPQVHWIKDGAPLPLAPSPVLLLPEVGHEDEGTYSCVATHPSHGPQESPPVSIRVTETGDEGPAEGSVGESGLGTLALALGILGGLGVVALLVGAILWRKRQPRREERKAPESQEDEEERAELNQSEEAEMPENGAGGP

Experiments:
murine RAGE-Fc (murine) [1] = target: murine RAGE-Fc (murine) (UniProt Q62151); test: BIACORE direct binding, RAGE-Fc on CM5 chip, antibody 50 and 100 nM
murine RAGE-Fc (murine) [2] = target: murine RAGE-Fc (murine) (UniProt Q62151); test: ELISA, antigen coated

- binding (murine RAGE-Fc (murine) [1]): binds
- binding (murine RAGE-Fc (murine) [2]): binds
B1: XT-M4 (antibody, V domains shown)
VH: EVQLVESGGGLVQPGRSLKLSCVVSGFTFNNYWMTWIRQTPGKGLEWVASINNSGDNTYYPDSVKDRFTISRDNAKSTLYLQMNSLRSEDTATYYCTRGGDITTGFDYWGQGVMVTVSS
VL: DIQMTQSPSSMSVSLGDTITITCRASQDVGIYVNWFQQKPGKSPRRMIYRATNLADGVPSRFSGSRSGSIYSLTISSLESEDVADYHCLEFDEHPLTFGSGTKVEIK
